Article PMC3382582
Construct, isoform or probe ends are uncertain for at least one entry. Where cells or extracts were used, other partners may take part.

Sequences of proteins named here, by UniProt entry; tags and fusion partners are left off. A change or cut given only in a name is not applied to a line headed by its entry.
UniProt O08580: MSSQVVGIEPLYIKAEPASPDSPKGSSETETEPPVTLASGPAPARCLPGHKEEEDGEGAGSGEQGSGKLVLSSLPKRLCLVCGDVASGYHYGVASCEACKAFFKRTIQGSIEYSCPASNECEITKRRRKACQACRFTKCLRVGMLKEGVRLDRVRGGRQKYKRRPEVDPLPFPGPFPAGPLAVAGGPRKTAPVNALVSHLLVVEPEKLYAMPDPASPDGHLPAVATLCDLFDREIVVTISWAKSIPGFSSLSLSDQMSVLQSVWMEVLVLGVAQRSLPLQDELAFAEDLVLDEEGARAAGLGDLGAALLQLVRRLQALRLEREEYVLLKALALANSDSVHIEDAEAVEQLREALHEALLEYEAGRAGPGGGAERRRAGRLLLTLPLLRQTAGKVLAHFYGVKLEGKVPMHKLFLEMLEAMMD

Target: ERRα (hypothalamic nuclear extract) (Mus musculus) (UniProt O08580)
Assay: EMSA supershift
Conditions: anti-ERRα antibody, complex I decreased, supershift band seen; EMSA: 10 mM Tris pH 7.5, 50 mM NaCl, 2.5 mM MgCl2, 0.5 mM DTT, 4% glycerol, 2 µg poly(dI:dC), 1 pmol probe, 20 µl, room temperature 15 min; 5% polyacrylamide gel; protein in an extract; label: 32P 5' end label (T4 PNK)

GCCCCTGACCTTCCCGG / CCGGGAAGGTCAGGGC [GS-ERRα (SCT promoter ERE-half site oligo)]
binding result: binds
